Results on 39 compounds are retold here after the supplement of paper PMC8551327.

Where “and” joins values, the source holds several entries; their conditions need not be identical. Equal entries are not always repeated. This is one part of the list. Rule as the data show it: active = 1.25 or more and inactive = the rest. Single values are uncertain, as repeats are few or missing.

The test system of the test is Kcc2-LUC knock-in mouse primary cortical neurons (Kcc2 promoter reporter). Kind of test: Kcc2 promoter-driven luciferase activity relative to vehicle control (fold of vehicle (ratio)); higher = stronger Kcc2 promoter activation (Kcc2 expression enhancer). The settings on record: 100 nM; 48 h.
Regarding `CC1=C/C(=C2\N=C(N(C)C)SS2)C(C)=N1`, the “Kcc2 promoter-driven luciferase activity” value was inactive: 1.1.

`O=C(O)c1ccc(Nc2c3ccccc3nc3ccccc23)cc1` [Sodium;4-(acridin-9-ylamino)benzoate]: the “Kcc2 promoter-driven luciferase activity” value is inactive: 1.2.

In the case of `Cc1ccc(S(=O)(=O)N2CCSCCSCCSCCSCC2)cc1`, the “Kcc2 promoter-driven luciferase activity” value was inactive: 0.93.

`C=C1C(=O)O[C@H]2[C@H]1CC/C(C)=C/CC[C@@]1(C)O[C@@H]21` [Parthenolide]: the “Kcc2 promoter-driven luciferase activity” value was inactive: 0.51.

Consider `CCCn1c(=O)c2ccccc2[n+]2c(-c3ccc([N+](=O)[O-])cc3)csc12`, for which the “Kcc2 promoter-driven luciferase activity” value was inactive: 0.79.

In the case of `CC(=O)OCC1=C[C@@H]2OC(=O)C3=CO[C@@H](O[C@@H]4O[C@H](CO)[C@@H](O)[C@H](O)[C@H]4O)[C@H]1[C@@H]32` [Asperuloside], the “Kcc2 promoter-driven luciferase activity” value was inactive: 1.09.

In the case of `Cc1ccccc1NC(=O)C=NO` [2-(Hydroxyimino)-N-(2-methylphenyl)acetamide], the “Kcc2 promoter-driven luciferase activity” value is inactive: 0.99.

`O=[N+]([O-])c1ccc2c(N=Nc3c(O)ccc4ccccc34)c(O)cc(S(=O)(=O)O)c2c1` [Mordant Black 1]: the “Kcc2 promoter-driven luciferase activity” value was inactive: 0.41.

As to `COc1c(O[C@@H]2O[C@H](CO)[C@@H](O)[C@H](O)[C@H]2O)cc2c(c1OC)-c1ccc(OC)c(=O)cc1[C@@H](NC(C)=O)CC2` [Colchicoside], the “Kcc2 promoter-driven luciferase activity” value is inactive: 0.95.

Turning to `S=C1Nc2cnc3ccccc3c2SC1c1ccccc1` (centres undefined) [2-phenyl-4H-[1,4]thiazino[3,2-c]quinoline-3-thione], the “Kcc2 promoter-driven luciferase activity” value was active: 1.26.

As to `C=C1C(=O)O[C@@H]2[C@H]3C(C)=C[C@@H](O)[C@H]3[C@@]3(CO3)C[C@@H](OC(=O)/C(C)=C\COC(C)=O)[C@@H]12` [Deoxyliatrigramin], the “Kcc2 promoter-driven luciferase activity” value was inactive: 1.04.

As to `C1CN(c2nnc(N3CCC3)nn2)C1` [3,6-Bis(azetidin-1-yl)-1,2,4,5-tetrazine], the “Kcc2 promoter-driven luciferase activity” value was active: 1.39.

As for `Cc1c2ccnc(C(N)=O)c2c(C)c2c1[nH]c1ccccc12`, the “Kcc2 promoter-driven luciferase activity” value was inactive: 0.98.

As for `COC(C(=O)C(O)C(C)O)C1Cc2cc3cc(OC4CC(OC5CC(O)C(O)C(C)O5)C(O)C(C)O4)c(C)c(O)c3c(O)c2C(=O)C1OC1CC(OC2CC(OC3CC(O)C(OC)C(C)O3)C(O)C(C)O2)C(O)C(C)O1` (centres undefined) [Variamycin], the “Kcc2 promoter-driven luciferase activity” value is inactive: 1.11.

On to `COC(=O)[C@@H]1[C@H](O)[C@H](C)[C@H](O)[C@H](C)/C=C\C=C(/C)C(=O)Nc2c(C)c(OC(C)=O)c3c(c2O)C(=O)C(C)=C2OCOC(=C23)/C(C)=C/[C@@](C)(O)[C@H](O)[C@@H](C)[C@H]1OC(C)=O` [Streptovaricin B], for which the “Kcc2 promoter-driven luciferase activity” value was inactive: 0.58 and inactive: 0.91.

On to `CC(C)(C)NCCC(O)c1cc(C(F)(F)F)nc2c(C(F)(F)F)cccc12` (centres undefined) [1-(2, phosphoric acid], for which the “Kcc2 promoter-driven luciferase activity” value is inactive: 0.85.

Turning to `COC1/C=C/OC2(C)Oc3c(C)c(O)c4c(c3C2=O)C(=O)C=C(NC(=O)/C(C)=C\C=C\C(C)C(OC=O)C(C)C(O)C(C)C(OC(C)=O)C1C)C4=O` (centres undefined) [1. Rifamycin,4-dideoxy-1,4-dihydro-1,4-dioxo-, 21-formate], the “Kcc2 promoter-driven luciferase activity” value was inactive: 1.08.

Turning to `O=C(CC1(O)C(=O)Nc2c(Cl)cc(Cl)cc21)c1cccc([N+](=O)[O-])c1` (centres undefined), the “Kcc2 promoter-driven luciferase activity” value is inactive: 0.85.

Regarding `CCOC(=O)/C(=C/c1ccc(N(C)C)cc1)N(CC)CC`, the “Kcc2 promoter-driven luciferase activity” value was inactive: 1.02.

Take `Cn1cc(NC(=O)c2cc(NC(=O)c3cc(NC=O)cn3C)cn2C)cc1C(=O)NCCC(=N)N` [Stallimycin]: the “Kcc2 promoter-driven luciferase activity” value was inactive: 0.995.

For `COc1ccccc1Cc1nc(-c2ccccc2)nn(C2OC(COC(C)=O)C(OC(C)=O)C(OC(C)=O)C2OC(C)=O)c1=S` (centres undefined), the “Kcc2 promoter-driven luciferase activity” value was inactive: 0.83.

Turning to `COc1nc(N)nc2nc[nH]c12` [6-methoxyguanine], the “Kcc2 promoter-driven luciferase activity” value was inactive: 1.16.

With `O=c1cnn([C@@H]2O[C@H](CO)[C@@H](O)[C@H]2O)c(=S)[nH]1` [6-Aza-2-thiouridine], the “Kcc2 promoter-driven luciferase activity” value is inactive: 0.89.

With `CCC1OC(=O)C(C)C(OC2CC(C)(O)C(O)C(C)O2)C(C)C(O)C(C)(O)CC(C)C(=O)C(C)C(O)C1C` (centres undefined), the “Kcc2 promoter-driven luciferase activity” value was inactive: 1.2.

Consider `CC[C@H]1OC(=O)[C@H](C)[C@@H](OC2CC(C)(OC)C(OC(=O)CCCC(=O)O)C(C)O2)[C@H](C)[C@@H](OC2OC(C)CC(N(C)C)C2O)[C@](C)(O)C[C@@H](C)C(=O)[C@H](C)[C@@H](O)[C@]1(C)O` (some centres undefined) [Erythromycin Hydrogen Glutarate], for which the “Kcc2 promoter-driven luciferase activity” value is active: 1.33.

For the compound `O=[N+]([O-])c1ccccc1S(=O)(=O)c1ccccc1[N+](=O)[O-]` [Bis(2-nitrophenyl)sulfone], the “Kcc2 promoter-driven luciferase activity” value was inactive: 1.07.

As for `CNC(=O)c1cc(NC(=O)N(CCC#N)CCN(C(=O)N[C@@H](Cc2ccccc2)C(=O)N[C@@H](CC(C)C)C(=O)NC)c2ccccc2)ccc1OC`, the “Kcc2 promoter-driven luciferase activity” value was inactive: 0.96.

As for `N#CCCN(CCC#N)c1ccc(C=Nc2ccc(F)cc2)cc1`, the “Kcc2 promoter-driven luciferase activity” value was inactive: 0.99.

For `O=C1C=CC2=C3c4cc(O)c(O)cc4CC3(O)COC2=C1O` (centres undefined) [Hematein], the “Kcc2 promoter-driven luciferase activity” value is inactive: 0.983.

Take `NCCSSCc1ccccc1CSSCCN`: the “Kcc2 promoter-driven luciferase activity” value is inactive: 1.03.

As for `CCN(CC)CCN1C(=O)c2c(c3c4cccc(Cl)c4n(C4OC(CO)C(OC)C(O)C4O)c3c3[nH]c4c(Cl)cccc4c23)C1=O` (centres undefined) [Rebeccamycin Analog], the “Kcc2 promoter-driven luciferase activity” value is inactive: 0.86.

Regarding `CN(C)CCOC1(Cc2ccc(Cl)cc2Cl)CCC(C(C)(C)C)CC1` (centres undefined), the “Kcc2 promoter-driven luciferase activity” value was inactive: 0.865.

Take `COC(=O)c1ccc(=O)c2nc3c(=CO)c(O)cc(=O)c3[nH]c12` [Lomofungin]: the “Kcc2 promoter-driven luciferase activity” value is inactive: 1.04.

Take `COC1OC(COCc2ccc(Cl)cc2)C(OCc2ccc(Cl)cc2)C1O` (centres undefined) [Methyl 3,5-bis-O-(4-chlorobenzyl)pentofuranoside]: the “Kcc2 promoter-driven luciferase activity” value is inactive: 1.1.

As for `N#CC1(C#N)C2C=CC(c3coc4cccc2c34)C1(C#N)C#N` (centres undefined), the “Kcc2 promoter-driven luciferase activity” value was inactive: 0.78.

`Cc1ccc(S(=O)(=O)c2ccc([N+](=O)[O-])o2)cc1` [2-Nitro-5-p-toluenesulfonylfuran]: the “Kcc2 promoter-driven luciferase activity” value is inactive: 0.96.

In the case of `Nc1ccc(N)c2c1C(=O)c1ccccc1C2=O` [Disperse Violet 1], the “Kcc2 promoter-driven luciferase activity” value was inactive: 0.95.

As for `CCOC(=O)CCn1ncc(Cl)c(Cl)c1=O` [Ethyl 3-(4,5-dichloro-6-oxo-1(6H)-pyridazinyl)propanoate], the “Kcc2 promoter-driven luciferase activity” value is inactive: 1.03.

`Oc1cc2c3c(c1)c1cc4c(cc1c[n+]3CC2)OCO4` [Lycobetaine Chloride]: the “Kcc2 promoter-driven luciferase activity” value was inactive: 0.97.
